Data on eight molecules can be found in patent US20250034269A1.

By UniProt entry, the sequences of proteins in these tests, tags left out. Where a name states a change or a piece, a line headed by the entry shows the natural chain unless it says otherwise.
UniProt P36941: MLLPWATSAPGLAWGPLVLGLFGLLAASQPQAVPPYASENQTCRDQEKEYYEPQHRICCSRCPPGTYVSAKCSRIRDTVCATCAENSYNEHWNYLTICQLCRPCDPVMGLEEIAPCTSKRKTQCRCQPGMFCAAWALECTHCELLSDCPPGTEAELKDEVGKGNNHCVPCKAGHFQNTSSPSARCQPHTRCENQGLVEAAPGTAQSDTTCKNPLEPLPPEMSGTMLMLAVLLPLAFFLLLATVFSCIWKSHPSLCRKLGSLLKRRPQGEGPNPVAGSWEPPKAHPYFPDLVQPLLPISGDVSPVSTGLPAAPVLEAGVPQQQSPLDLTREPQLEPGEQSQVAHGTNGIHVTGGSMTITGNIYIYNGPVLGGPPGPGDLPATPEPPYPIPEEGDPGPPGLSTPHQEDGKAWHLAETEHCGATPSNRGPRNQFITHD
UniProt P50284: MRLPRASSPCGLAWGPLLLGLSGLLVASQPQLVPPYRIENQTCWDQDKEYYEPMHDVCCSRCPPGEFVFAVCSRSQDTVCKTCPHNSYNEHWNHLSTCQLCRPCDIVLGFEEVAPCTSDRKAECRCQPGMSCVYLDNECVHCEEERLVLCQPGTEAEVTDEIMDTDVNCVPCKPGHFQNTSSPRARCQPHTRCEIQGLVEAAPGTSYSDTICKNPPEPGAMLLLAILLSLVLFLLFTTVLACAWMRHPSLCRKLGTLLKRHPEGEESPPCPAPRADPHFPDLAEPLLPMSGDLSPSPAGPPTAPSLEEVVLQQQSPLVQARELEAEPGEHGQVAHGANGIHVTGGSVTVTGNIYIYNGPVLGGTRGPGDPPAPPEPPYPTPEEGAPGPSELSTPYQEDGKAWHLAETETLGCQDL

Results are given in words; binding and its absence hold for the method and conditions named. Some binding calls cover weakened binding; strength is not graded here.

For test [1], the target named is dimeric human LTBR-Fc biotinylated (P1AE2401) (human) (UniProt P36941). The experiment in a line: ligand-competition ELISA: biotinylated dimeric human LTBR-Fc (P1AE2401, 500 ng/ml) on streptavidin plate, antibody titrated 1:3 from 100 nM, then His6-tagged human LIGHT at 1000 ng/ml, bound ligand detected with anti-His6-POD. On the technique in general: ELISA stands for enzyme-linked immunosorbent assay.

For test [2] the target is unchanged. The test can be described thus: ligand-competition ELISA: biotinylated dimeric human LTBR-Fc (P1AE2401) on streptavidin plate, antibody titrated 1:3 from 100 nM, then human lymphotoxin α1β2 (P1AE1235; sheet: huLTa1b1) at 250 ng/ml, bound ligand detected with anti-His6-POD.
For test [3] the target is unchanged. The test can be described thus: direct ELISA.
Test [4] deals with dimeric murine LTBR-Fc disulfide-linked homodimer biotinylated (P1AE2655) (mouse; human) (UniProt P50284). The experiment in a line: direct ELISA.

B1: P1AE9450 (antibody, human IgG1, kappa, L234A L235A, V domains shown)
VH: EVQLLESGGGLVQPGGSLRLSCAASGFTVSSYVMKWFRQAPGKGLEWVSSISGSGGRPFYADSVKGRFTISRDNSKNALYLQMNSLRAEDTAVYYCANDMDVWGQGTTVTVSS
VL: DIQMTQSPSSLSASVGDRVTITCRASQDISSFLKWYQQKPGKAPTLLIYAASALQSGVPSRFSGSGSGTDFTLTISSLQPEDFATYYCQQYNTYPLTFGGGTKVDIKR
Turning to B1, the binding result in test [1], in test [2] and in test [3] was “binds” each time.

B2: P1AE9459 (antibody, human IgG1, kappa, L234A L235A, V domains shown)
VH: EVQLVESGGGLVQPGGSLRLSCAASGFTFSSYTMNWVRQAPGKGLEWVSGVAPSGDRTYYTDSVKGRFTISRDNAKNTLDLQMTSLRAEDAAIYICAQGFAFTNWGQGTMVTVSS
VL: DIQMTQSPSSLSASVGDRVTITCRASQGISSALAWFQQKPGKAPKRLIFDASSLDSGVPSRFSGSGSGTDFTLTISSLQPEDFATYYCQQYNNYPLTFGGGTKVEMKR
Turning to B2, the binding entry in test [1], in test [4] and in test [3] was “binds” in each case.

B3: P1AE9452 (antibody, human IgG1, kappa, L234A L235A, V domains shown)
VH: EVQLLESGGGLVQPGGSLRLSCAAAGFTFSSYPMTWVRQAPGKGLEWVSLISPSGATTYYADSVKGRFTISRDTSKNTLYLQMNSLRAEDTAVYYCAKNHYPDDVIIKNYYFYGVDVWGQGTTVTVSS
VL: DIQMTQSPSSLSASVGDRVTITCRASQDISNYLNWYQQKPGKAPKSLIYAASSLQSGVPSRFSGSGSGTDFTLTISSLQPEDFANYYCQQTHTIPYSFGQGTNLEIKR
B3: the binding entry in test [1] and in test [3] was “binds” in each case.

B4: P1AF0080 (antibody, human IgG1, kappa, L234A L235A, V domains shown)
VH: EVQLLESGGGLVQPGGSLRLSCAASGFTFSYYAMTWVRQAPGKGLEWIGVINSGGGTYYTDSVKGRFTMSRDNSKNTLYLQVNSLRAEDTAVYYCAKASTADVWGQGTTVTVSS
VL: DIQMTQSPSSLSASVGDRVTITCQASQGISNYLSWYQQKPGKAPKRLIFAASSLESGVPSRFSGSGSGTDFTLTISSLQPEDFATYYCQQYNSYSLTFGGGTKLEIKR
For the molecule B4, the binding result in test [4] and in test [3] was “binds” each time.

B5: P1AF0079 (antibody, human IgG1, kappa, L234A L235A, V domains shown)
VH: EVQLLESGGALVQPGGSLRLSCAASGFTFSSYAMSWVRQAPGKGLEWVSVITGSSSSIDYADSVKGRFTISRDNSKNTLYLQMNSLRAEDTAVYYCAKGGSGVWSISTDFDYWGQGTLVTVSS
VL: DIQMTQSPSFLSASVGDRVTITCQASQDISNYLNWYQQKPGKAPKHLIYAASSLHSGVPSRFSGSGSGAYFTLTITSLQPEDFATYYCQQSHSTPPTFGPGTKVDIKR
As to B5, the binding entry in test [3] was “binds”.

B6: P1AF0064 (antibody, human IgG1, kappa, L234A L235A, V domains shown)
VH: EVQLQQYGAELGKPGTSVKLSCKVSGYNIGNTYIHWVIQRPGKGLEWIGRIDPTNGNTICTEKFKNKATLTADLSSNTAYMQLSQLKSDDTAIYFCAPTTLTTPDSFAYWGQGTLVTVSS
VL: DIQMTQSPSQLSASVGDRVTLSCKASQNIYKYLNWYQQKLGEAPRLLIYSTNILQTGIPSRFSGSGSGTDYTLTISSLQPEDAATYFCQKYYSGFTFGSGTKLEMKR
With B6, the binding entry in test [4] and in test [3] was “binds” throughout.

B7: P1AE9457 (antibody, human IgG1, kappa, L234A L235A, V domains shown)
VH: EVQLLESGGGLVQPGGSLRLSCAASGFTFSNYAMTWVRQAPGKGLEWVSEISGSGGSTYYADSVKGRFTISRDNSKNTLYLQMNSLRAEDTAVYYCAKDDDGAYGDTMDVWGQGTTVTVSS
VL: DIQMTQSPSSLSASIGDRVTITCRASQDISNYLNWYQQKPGKAPKLLIYAASALQSGVPSRFSGSGSGTDFTLTISSLQPEDFATYYCQHYKSYPYTFGQGTKVEIRR
In the case of B7, the binding result in test [2] and in test [3] was “binds” each time.

B8: P1AE1873 (CBE11) (antibody, human IgG1, kappa, L234A L235A, V domains shown)
VH: EVQLVESGGGLVKPGGSLRLSCAASGFTFSDYYMYWFRQAPGKGLEWVATISDGGSYTYYPDSVKGRFTISRDNAKNSLYLQMSSLRAEDTAVYYCAREENGNFYYFDYWGQGTTVTVSS
VL: DIQMTQSPSSLSASVGDRVTITCKAGQDIKSYLSWYQQKPGKAPKLLIYYATRLADGVPSRFSGSGSGTDYTLTISSLQPEDFATYYCLQHGESPWTFGGGTKLEIKR
As to B8, the binding result in test [3] is reported as “binds”.
